Test results taken from paper PMC8844414.

The chains behind the UniProt entries cited, without tags or fusion partners.
UniProt Q969G3: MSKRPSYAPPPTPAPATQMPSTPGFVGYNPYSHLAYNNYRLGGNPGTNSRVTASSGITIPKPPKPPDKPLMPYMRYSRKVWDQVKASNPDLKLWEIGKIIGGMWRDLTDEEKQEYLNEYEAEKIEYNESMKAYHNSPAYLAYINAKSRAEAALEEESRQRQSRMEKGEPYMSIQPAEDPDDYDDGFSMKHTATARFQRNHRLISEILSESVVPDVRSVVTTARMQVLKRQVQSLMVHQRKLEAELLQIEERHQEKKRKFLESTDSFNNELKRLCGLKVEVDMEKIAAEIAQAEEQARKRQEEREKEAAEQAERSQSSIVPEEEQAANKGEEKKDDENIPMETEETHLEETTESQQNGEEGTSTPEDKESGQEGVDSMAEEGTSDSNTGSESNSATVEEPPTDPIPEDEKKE
UniProt Q92922: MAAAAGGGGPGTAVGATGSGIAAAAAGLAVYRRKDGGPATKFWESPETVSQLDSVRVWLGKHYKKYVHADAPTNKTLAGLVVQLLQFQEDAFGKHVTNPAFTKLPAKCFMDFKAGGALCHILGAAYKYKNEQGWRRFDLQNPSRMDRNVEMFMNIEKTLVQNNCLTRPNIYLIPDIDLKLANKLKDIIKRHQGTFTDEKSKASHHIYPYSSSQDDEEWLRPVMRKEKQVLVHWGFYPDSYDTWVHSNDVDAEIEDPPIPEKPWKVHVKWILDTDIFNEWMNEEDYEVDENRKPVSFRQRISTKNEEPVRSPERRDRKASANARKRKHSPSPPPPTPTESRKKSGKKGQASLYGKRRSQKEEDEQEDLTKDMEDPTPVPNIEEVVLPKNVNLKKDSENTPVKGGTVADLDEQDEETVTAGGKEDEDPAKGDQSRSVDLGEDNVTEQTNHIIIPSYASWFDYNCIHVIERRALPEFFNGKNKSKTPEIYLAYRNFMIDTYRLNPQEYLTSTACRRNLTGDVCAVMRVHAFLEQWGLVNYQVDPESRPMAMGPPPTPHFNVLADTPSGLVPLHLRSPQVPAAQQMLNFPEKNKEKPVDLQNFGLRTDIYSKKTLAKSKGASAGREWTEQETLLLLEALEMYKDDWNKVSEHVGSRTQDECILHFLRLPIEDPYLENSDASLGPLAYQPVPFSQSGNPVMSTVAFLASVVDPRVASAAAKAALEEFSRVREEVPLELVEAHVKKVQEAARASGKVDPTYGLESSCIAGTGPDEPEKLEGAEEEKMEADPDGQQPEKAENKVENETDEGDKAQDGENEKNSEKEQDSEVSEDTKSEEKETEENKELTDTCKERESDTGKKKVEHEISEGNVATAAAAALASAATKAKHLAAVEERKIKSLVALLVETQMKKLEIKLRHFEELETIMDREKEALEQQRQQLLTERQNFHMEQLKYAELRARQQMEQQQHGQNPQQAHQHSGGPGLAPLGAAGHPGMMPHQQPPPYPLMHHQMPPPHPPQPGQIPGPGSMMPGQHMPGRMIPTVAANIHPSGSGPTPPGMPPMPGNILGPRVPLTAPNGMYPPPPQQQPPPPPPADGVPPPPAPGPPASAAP

Biological target: T1, FOXP1 (human (HONE1, AGS, C666-1 cells)) (UniProt Q9H334)
T1 sequence: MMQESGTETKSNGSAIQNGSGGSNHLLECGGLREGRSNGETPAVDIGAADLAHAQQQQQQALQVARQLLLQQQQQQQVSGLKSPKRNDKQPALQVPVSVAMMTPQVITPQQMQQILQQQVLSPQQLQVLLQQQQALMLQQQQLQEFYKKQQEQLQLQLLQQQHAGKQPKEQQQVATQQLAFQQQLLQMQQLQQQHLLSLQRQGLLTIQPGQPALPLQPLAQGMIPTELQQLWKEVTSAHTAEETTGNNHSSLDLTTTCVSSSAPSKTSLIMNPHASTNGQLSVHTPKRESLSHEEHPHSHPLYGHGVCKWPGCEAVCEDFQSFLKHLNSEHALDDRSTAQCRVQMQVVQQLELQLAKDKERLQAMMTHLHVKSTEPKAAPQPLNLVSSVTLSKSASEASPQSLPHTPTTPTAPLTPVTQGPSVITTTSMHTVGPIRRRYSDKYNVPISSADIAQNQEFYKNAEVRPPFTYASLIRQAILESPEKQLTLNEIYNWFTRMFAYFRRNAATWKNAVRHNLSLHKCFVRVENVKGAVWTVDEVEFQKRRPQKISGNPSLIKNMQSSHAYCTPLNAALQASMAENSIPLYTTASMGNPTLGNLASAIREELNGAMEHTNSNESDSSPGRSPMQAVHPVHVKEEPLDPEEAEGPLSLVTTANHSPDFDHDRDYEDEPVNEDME
Experiment: affinity purification with mass spectrometry; Co-IP combined with mass spectrometry for FOXP1; eluates resolved by SDS-PAGE, Coomassie-stained bands that differed from the control excised, trypsin digest, LC-MS/MS (LTQ Orbitrap Velos); cell line not stated

Row | Substance | binding
1 | SMARCE1 (from UniProt Q969G3 1-411) | binds
2 | SMARCC1 (from UniProt Q92922 1-1105) | binds

Results are given in words; binding and its absence hold for the method and conditions named. Binding seen in cells or lysates may run through a third protein. A yes stands for co-enrichment or nearness to the bait. Other partners may have been found.
